Results reported in publication PMC12287301.

By UniProt entry, the sequences of proteins in these tests, tags left out. Where a name states a change or a piece, a line headed by the entry shows the natural chain unless it says otherwise.
UniProt Q9CAG8: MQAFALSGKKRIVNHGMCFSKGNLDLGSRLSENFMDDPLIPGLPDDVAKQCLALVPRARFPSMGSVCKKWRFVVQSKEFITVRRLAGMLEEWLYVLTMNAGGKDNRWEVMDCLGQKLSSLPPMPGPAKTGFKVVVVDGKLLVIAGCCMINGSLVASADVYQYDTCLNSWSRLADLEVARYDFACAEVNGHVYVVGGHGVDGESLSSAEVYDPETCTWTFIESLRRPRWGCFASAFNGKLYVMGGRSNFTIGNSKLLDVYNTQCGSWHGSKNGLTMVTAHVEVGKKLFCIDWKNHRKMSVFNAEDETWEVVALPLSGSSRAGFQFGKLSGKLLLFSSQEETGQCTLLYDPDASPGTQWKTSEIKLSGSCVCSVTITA

Target: HA-LAO1 (Arabidopsis thaliana) (UniProt Q9CAG8)
Test: pull-down; semi-in vivo pull-down: HA-LAO1 enriched from 35S: HA-LAO1 seedling extract on anti-HA affinity beads, washed, mixed with 1 ug purified His-tagged protein for 3 h at 4 C in IP buffer (50 mM Tris-HCl pH 7.5, 150 mM NaCl, 1 mM MgCl2, 0.1% NP40); blots anti-His and anti-HA; only the binder purified

B1: His-DSK2B (protein, UniProt Q9SII8 1-551)
chain: MGGEGDSSQPQSGEGEAVAVNIRCSNGTKFSVKTSLDSTVESFKELVAQSSDVPANQQRLIYKGRILKDDQTLLSYGLQADHTIHMVRGSAPSSAPPPAPAASQTTAPSVTRGVGSDNSSNLGGASPGESLFPGLGFNPLGGGNAMSGLFGAGLPDLVQTQQQLAQNPNMIRDMMNTPAIQNLMNNPEFMRSMIMNNPQMRELVDRNPELGHVLNDPSILRQTLEAARNPELMREMMRNTDRAMSNIESMPEGFNMLRRMYENVQEPLMNATTMSGNAGNNTGSNPFAALLGNQGVTTQGSDASNNSSTPNAGTGTIPNANPLPNPWGATGGQTTAPGRTNVGGDARSPGLGGLGGLGSLGGLGGLGMLGADSPLGATPDASQLSQLLQNPAISQMMQSVFSNPQYMNQLMSLNPQLRSMLDSNPQLREMMQNPDFLRQFSSPEMMQQMMTLQQSLSQNRNTASQDAGQTGAATGNNGGLDLLMNMFGSLGAGGLSGTNQSNVPPEERYATQLQQLQEMGFYDRAENIRALLATNGNVNAAVERLLGSIGQ
B1 was tested, and the binding was “binds”.

These are yes or no findings as the source states them, for the method shown. In cells and extracts the contact can be indirect. Binding calls can cover weak binding; strength is not graded here. Tags and fused reporters may be left off the sequences shown.
